Values quoted from earlier work in patent US20250064896A1, “METHODS, COMPOSITIONS AND USES FOR TREATING CANCER BY PROVIDING MEDICATIONS THAT INDUCE TARGETED TUMOR CELL MITOSIS BEFORE PROVIDING CHEMOTHERAPY OR RADIATION AND KITS THEREFOR” (MAISON AMORI OQVPO LLC, priority 2022, published 2025).
At least one compound was matched to its structure with a doubt left.

Experiments:
[1] = test system: LH, oestradiol, testosterone, prostate-specific antigen
[2] = test system: recurrent prostate cancer; details: radiation with bicalutamide
[3] = test system: locally advanced prostate cancer; details: goserelin 3.6 mg every 4 weeks and flutamide 250 mg tid, 2 months before and concurrent with RT

| SMILES | LH, oestradiol, and testosterone levels ([1]; bicalutamide monotherapy, prostate cancer patients) | prostate-specific antigen under treatment ([1]; treatment with bicalutamide) | long-term overall survival compared to radiation alone [2] | survival, combined ADT with RT versus RT alone [3] |
| --- | --- | --- | --- | --- |
| CC(O)(CS(=O)(=O)c1ccc(F)cc1)C(=O)Nc1ccc(C#N)c(C(F)(F)F)c1 (stereo not shown) [bicalutamide] | rise | decreases | significantly higher | – |
| CC(C)C(=O)Nc1ccc([N+](=O)[O-])c(C(F)(F)F)c1 [flutamide] | – | – | – | no significant difference |
